Results reported in US20220372120A1 (GEMINI THERAPEUTICS SUB, published 2022).
Results are given in words; binding and its absence hold for the method and conditions named. Some results given as binding are weak or reduced against the parent protein; the word gives no strength.

Sequences of proteins named here, by UniProt entry; tags and fusion partners are left off. Residues count along the entry.
UniProt P08603, residues 19-1231: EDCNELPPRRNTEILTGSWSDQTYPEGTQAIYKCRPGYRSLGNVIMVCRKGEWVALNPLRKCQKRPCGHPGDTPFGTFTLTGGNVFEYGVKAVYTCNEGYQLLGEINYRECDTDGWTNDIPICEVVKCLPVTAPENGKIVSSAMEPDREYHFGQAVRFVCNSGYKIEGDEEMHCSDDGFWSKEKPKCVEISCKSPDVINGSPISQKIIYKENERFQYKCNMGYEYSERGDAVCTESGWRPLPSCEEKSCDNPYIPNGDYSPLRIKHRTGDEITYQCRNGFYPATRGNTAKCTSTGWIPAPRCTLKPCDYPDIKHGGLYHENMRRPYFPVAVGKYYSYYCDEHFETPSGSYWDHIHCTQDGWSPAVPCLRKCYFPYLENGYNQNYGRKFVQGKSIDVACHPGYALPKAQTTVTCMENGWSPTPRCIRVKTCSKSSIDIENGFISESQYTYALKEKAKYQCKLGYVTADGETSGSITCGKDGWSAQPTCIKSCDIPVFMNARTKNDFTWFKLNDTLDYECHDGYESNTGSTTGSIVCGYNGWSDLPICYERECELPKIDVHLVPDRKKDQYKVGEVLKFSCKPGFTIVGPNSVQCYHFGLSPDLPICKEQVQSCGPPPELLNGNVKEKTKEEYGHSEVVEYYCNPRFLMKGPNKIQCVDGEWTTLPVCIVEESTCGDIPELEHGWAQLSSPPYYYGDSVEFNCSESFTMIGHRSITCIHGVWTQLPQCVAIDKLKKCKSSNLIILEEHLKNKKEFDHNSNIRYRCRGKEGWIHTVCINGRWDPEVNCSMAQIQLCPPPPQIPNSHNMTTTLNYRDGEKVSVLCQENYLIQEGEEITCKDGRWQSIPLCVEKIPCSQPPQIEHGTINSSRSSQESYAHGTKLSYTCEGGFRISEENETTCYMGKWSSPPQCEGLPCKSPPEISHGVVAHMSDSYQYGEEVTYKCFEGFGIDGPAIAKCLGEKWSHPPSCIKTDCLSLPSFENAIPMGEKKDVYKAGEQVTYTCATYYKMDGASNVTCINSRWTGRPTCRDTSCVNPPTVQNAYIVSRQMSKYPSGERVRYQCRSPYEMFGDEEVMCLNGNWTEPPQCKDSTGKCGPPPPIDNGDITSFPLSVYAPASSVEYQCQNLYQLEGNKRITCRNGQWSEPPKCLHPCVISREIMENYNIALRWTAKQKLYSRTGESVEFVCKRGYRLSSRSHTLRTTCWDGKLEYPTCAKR

Target: Human purified factor H (human, UniProt P08603 19-1231)
Assay: ELISA, mAb captured on RM-19 plate, biotinylated FH with excess unlabeled FH fragments

binding: binds
B1: FH.07 (antibody, V domains shown)
VH: QVQLQQSGPGLVQPSQSLSITCTVSDFSLARYGVHWIRQSPGKGLEWLGVIWSGGTADYNAAFISRLNINKDNSKSQVFFKMNSLQANDTAIYYCARNFGNYAVDYWGQGTS
VL: QIVLSQSPTFLSASPGEKVTVTCRASSSVKYMHWYQQKPGASPKPWIFATSNLASGVPARFSGSGSGTSYSLTISRVEAEDAATYYCQQWSIIPPTFGNGTKLELK
